Reference: paper PMC5796268, “Affinity Purification and Comparative Biosensor Analysis of Citrulline-Peptide-Specific Antibodies in Rheumatoid Arthritis” (International Journal of Molecular Sciences, 2018)

Experiments:
[1] = system: serum antibodies from RA patients; assay: SPR, RA serum antibodies on Cit-peptides covalently immobilized on GLH chip; format: binding, human; details: chip not stated (abstract)
[2] = system: serum IgG from RA patients; assay: SPR, RA serum IgG on biotinylated peptides on neutravidin-coated NLC chip; format: binding, human
[3] = system: autoantibodies (ACPA) in RA serum samples; assay: ELISA screening of RA and healthy sera with Cit-/Arg-peptides; format: binding, human
[4] = system: autoantibodies (ACPA) in RA serum samples; details: in house Cit-peptide ELISA, RA sera; cited from earlier work

Substance: H-Ttds-AXAXGSGSGXGXG-NH2 [multi-epitope, novel peptide consisting of two-two copies of Ala-Cit and Cit-Gly motifs separated with a neutral spacer, SGSG]
- healthy samples recognizing the peptide in SPR [1]: none of the healthy samples
- proportion of selected RA sera bound to the biotinylated peptide [2]: 53%
- sensitivity of ACPA identification in RA serum samples ([3]; biotinylated Cit-/Arg-multi-epitope peptide coat, RA n = 210, healthy n = 90): 66%
- ROC curve area under the curve (AUC) ([3]; multi-epitope peptide, RA n = 210, healthy n = 90): 0.7843

Substance: Ac-SHQESTXGXSXGRSGRSGSK-NH2 [Filaggrin (306–326)]
- sensitivity values for previously tested Cit-peptides [4]: 62%

Substance: Ac-KIHAXEIFDSXGNPTVE-NH2 [α-enolase (5–21)]
- sensitivity of autoantibody detection in RA serum samples ([3]; OD index Cit-/Arg-peptide, RA n = 177, healthy n = 104, peptides coated directly): 27%

Substance: Ac-AXGLTGXPGDA-NH2 [Collagen II (359–369)]
- proportion of selected RA sera bound to the biotinylated peptide [2]: 31%
- sensitivity values for previously tested Cit-peptides [4]: 44%

Substance: H-XPAPPPISGGGYXAX-NH2 [Fibrin β (60–74)]
- proportion of selected RA sera bound to the biotinylated peptide [2]: 60%
- sensitivity values for previously tested Cit-peptides [4]: 56%

Substance: Ac-SAVRAXSSVPGVRK-NH2 [Vimentin (65–77)]
- sensitivity values for previously tested Cit-peptides [4]: 41%
